Drawing on PMC7819943, “Rice protein-binding microarrays: a tool to detect cis-acting elements near promoter regions in rice”, this text covers binding signal for 42 sequences.

This is one part of the list.

For the test, the target named is T1, OsSMF1 (Oryza sativa, UniProt Q6ZLB0 1-436).
T1 sequence: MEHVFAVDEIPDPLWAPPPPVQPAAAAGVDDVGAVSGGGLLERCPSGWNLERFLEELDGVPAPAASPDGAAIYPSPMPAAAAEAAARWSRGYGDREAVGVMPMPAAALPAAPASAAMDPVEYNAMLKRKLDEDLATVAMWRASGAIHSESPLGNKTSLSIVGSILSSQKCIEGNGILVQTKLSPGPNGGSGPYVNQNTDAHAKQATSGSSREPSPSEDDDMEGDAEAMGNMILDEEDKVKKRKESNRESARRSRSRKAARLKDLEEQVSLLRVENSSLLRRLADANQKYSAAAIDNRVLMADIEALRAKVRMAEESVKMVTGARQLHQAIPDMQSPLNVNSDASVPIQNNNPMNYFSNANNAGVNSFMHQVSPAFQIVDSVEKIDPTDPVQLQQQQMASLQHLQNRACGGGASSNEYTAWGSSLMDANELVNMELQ
Put plainly: protein-binding microarray (RPBM); PBS, 2% BSA, 51.3 ng/ul salmon testes DNA, 50 uM zinc acetate, 200 nM TF, 25 C, 1 h; high values mean tight binding. The settings on record: protein: recombinant; tags: N-terminal polyhistidine and DsRed monomer fusion (pET32a); chain copies: 2; label: CyDye5-dUTP incorporated in the synthesized complementary strand; 3' TTTTT single-stranded linker to array surface; dsDNA, one strand shown. The method in brief:
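For the binding signal, per-feature fluorescence intensity was read in arbitrary units on an Axon 4000B scanner. Before scanning, a 2% BSA-blocked custom Agilent array made double-stranded with Cy5-dUTP was washed after 1 h at 25 °C with 200 nM protein and 50 µM zinc acetate. The proteins were Ni–NTA-purified transcription factors with N-terminal polyhistidine and DsRed fusions, expressed in E. coli BL21-CodonPlus.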
For the sequence “CCCCGACGCCTTCGTCCAGGCGAGAAGGCCAAGCGTCCTCCGGAGTCACCTAGTGCAG”, the binding signal was 34100 fluorescence intensity (a.u.). In the case of “ATACTGTTTCTTGTCGATCTATTGTCAATTTGTCATAGTACGGAGTCACCTAGTGCAG”, the binding signal is 3750 fluorescence intensity (a.u.).

Take “GCGCGGCGGTGCGGCGGCGGCGGCGGCGTCATGTACCTCCCGGAGTCACCTAGTGCAG”: the binding signal was 4710 fluorescence intensity (a.u.).

“ACCGGCGGCGGTGACCTAATGTCATGTCATGTCAGTAATGCGGAGTCACCTAGTGCAG”: the binding signal was 5160 fluorescence intensity (a.u.).

For “TGATGGCTCTTGCACTGTCATGCGGCTGCACAGATGTTTCCGGAGTCACCTAGTGCAG”, the binding signal is 4090 fluorescence intensity (a.u.). As for “TACTCACTAGTAGAACACATGGCCCACTGAATAGTGGGACCGGAGTCACCTAGTGCAG”, the figure is 23300 fluorescence intensity (a.u.).

On to “TCGCCCATCCACGACAGGTTCCCAAGAGTGCCTCCGCTGGCGGAGTCACCTAGTGCAG”, for which the binding signal was 3470 fluorescence intensity (a.u.).

As to “TGGGAGTGCGTGGTGTGCGTGGCGTCGGTTCTTGCGGAGGCGGAGTCACCTAGTGCAG”, the binding signal is 5410 fluorescence intensity (a.u.). As for “AGGATGTCACACGTACACTTTTCCTTACGAAATTTCCTTACGGAGTCACCTAGTGCAG”, the figure is 3530 fluorescence intensity (a.u.); as for “AAACCAGCCGCCCCGCAACCCAACAGCTATCTTTTCCCATCGGAGTCACCTAGTGCAG”, 3500 fluorescence intensity (a.u.); as for “GACCTGATGCAGCTGAGCCCGTGCGTCAGCGCGTTCTCCGCGGAGTCACCTAGTGCAG”, 3400 fluorescence intensity (a.u.). With “GCCAAACGCGCCAGATCCGCGCCTCCTCCACTCACACGCGCGGAGTCACCTAGTGCAG” the figure was 3360 fluorescence intensity (a.u.). With “TGTGTGTGTGTGTGTTGAATCATCCGACATCGTGCTATTACGGAGTCACCTAGTGCAG” the figure was 3710 fluorescence intensity (a.u.). In the case of “CGCCTCGTCATCGTCGTCGGCCCGGTTGCCCACCTCTTCACGGAGTCACCTAGTGCAG”, the binding signal is 6740 fluorescence intensity (a.u.). With “CTGCATGCGTATATACGACCGTGTGCATGCATATGCATGGCGGAGTCACCTAGTGCAG”, the binding signal was 3880 fluorescence intensity (a.u.). Regarding “TATTACCCTGAGTAGACGATTGACTCATTATATAATGATGCGGAGTCACCTAGTGCAG”, the binding signal was 3320 fluorescence intensity (a.u.). With “CTTTTCCAGTGACGCGTGCAGTTTACCAACCACCTGCTCTCGGAGTCACCTAGTGCAG”, the binding signal is 7150 fluorescence intensity (a.u.). With “AGGTGGAACCCGGTGGCCACGTCGCCGGCGGTGACGGCCGCGGAGTCACCTAGTGCAG” the figure was 5720 fluorescence intensity (a.u.). With “GCAAAAGATGTGTCACGCATTCCAACCCAAATTCTGCGGTCGGAGTCACCTAGTGCAG” the figure was 3360 fluorescence intensity (a.u.); with “ATTGGATGCATTGTCTCGCTGTGACAGGCCTTCTCCTAGACGGAGTCACCTAGTGCAG”, 3380 fluorescence intensity (a.u.); with “CTCCGTGAGCCCTTCCTCCTCCGCTCCTCTCCTTTCCGCCCGGAGTCACCTAGTGCAG”, 15600 fluorescence intensity (a.u.).

Turning to “GGATCCCCTTCCCACGCGTCCCTCCTCCTCCCTTCGTCCACGGAGTCACCTAGTGCAG”, the binding signal is 3760 fluorescence intensity (a.u.). As to “CGTGCTCTCCGGCCTCATCAACGAGGTCACGCCGCCGTGGCGGAGTCACCTAGTGCAG”, the binding signal is 3380 fluorescence intensity (a.u.). With “CGATTCGAAATCTGCCACGCTTTATTCCCGCCATCTCATTCGGAGTCACCTAGTGCAG” the figure was 4280 fluorescence intensity (a.u.). Consider “AATATAAGGTTGTTTCTGCCTTCTGGATTGCTGGACTGAACGGAGTCACCTAGTGCAG”, for which the binding signal is 3400 fluorescence intensity (a.u.). For the sequence “GAGGACGAGCGGGCGGACGGAGTCGGGGTGCGCGGCGAGGCGGAGTCACCTAGTGCAG”, the binding signal was 27000 fluorescence intensity (a.u.). With “GGCCAAGTGGTGGTGACTGGTGAGAGAAGCGAGGTAGGGTCGGAGTCACCTAGTGCAG” the figure was 4190 fluorescence intensity (a.u.).

As to “CCAGACGCACGAATGCATGACTCAGGTCCAGTTCTTTTCTCGGAGTCACCTAGTGCAG”, the binding signal is 6510 fluorescence intensity (a.u.). With “CATGTATCTAATTAACCCAATTTCCAACGGCACCCAGCTGCGGAGTCACCTAGTGCAG” the figure was 3470 fluorescence intensity (a.u.). With “AAATTCAAACTGTGACTCCCCGTGATCTTGACTTGCTGTTCGGAGTCACCTAGTGCAG” the figure was 3250 fluorescence intensity (a.u.). On to “GACCTCTTGCTAACTTTCCTTCAAAATGTATATAGAATTACGGAGTCACCTAGTGCAG”, for which the binding signal is 29000 fluorescence intensity (a.u.). With “GGTTGTATTACCTAACCCAGTCTGACTCGGACTTAGCCGACGGAGTCACCTAGTGCAG” the figure was 8700 fluorescence intensity (a.u.). On to “TACCTAGGTTTGTGCGTCATTGTGTATTTTACTCATCCTGCGGAGTCACCTAGTGCAG”, for which the binding signal is 5710 fluorescence intensity (a.u.).

Take “ACATCTAAACAGTAACCGTGAACAGTAGCGCGTGACTCGGCGGAGTCACCTAGTGCAG”: the binding signal was 32500 fluorescence intensity (a.u.).

On to “CTTTTGCTCACATGGCGTGCCACCGTGGCGTGCCCGCATGCGGAGTCACCTAGTGCAG”, for which the binding signal was 16200 fluorescence intensity (a.u.). With “GAAACGAACTCAGCCTACGTCAGTTGTGAAATGTGAATTCCGGAGTCACCTAGTGCAG” the figure was 3580 fluorescence intensity (a.u.); with “AGGGAGGAGGGGAATTCGTACTCAGTAGTTTCCGGGCTTTCGGAGTCACCTAGTGCAG”, 3150 fluorescence intensity (a.u.).

Turning to “ACGCCCGCGGCTCACTGACATGCCGGACGTCGCTTTGGCCCGGAGTCACCTAGTGCAG”, the binding signal is 3280 fluorescence intensity (a.u.).

“AGAAGTGTTCTACTACTAGTACTATATATGATCAGTTATTCGGAGTCACCTAGTGCAG”: the binding signal was 33900 fluorescence intensity (a.u.). Turning to “GGGGCCCACGCGTCGGCGTTGCGCGGATTTGTCGGCGGTGCGGAGTCACCTAGTGCAG”, the binding signal was 19800 fluorescence intensity (a.u.). “CCACAATCAATTTGACGTCGCCCCTATTTATGTCCTGCCTCGGAGTCACCTAGTGCAG”: the binding signal was 3210 fluorescence intensity (a.u.). “TCTGGCCAATTCCTTCCCACTCCCACACGTGTTCATAGTGCGGAGTCACCTAGTGCAG”: the binding signal is 6200 fluorescence intensity (a.u.).
